Source: PubChem BioAssay AID1259424 (University of Nebraska Medical Center, 2018)

Assay: 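Rank knockdowns across the genome by resemblance to the KSR1 depletion profile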 (primary screen)
Cells: human HCT116 colon cancer cells
Reagent: siRNA pool against human genes, 50 nM
Detection: 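Six signature mRNAs by branched-DNA multiplex assay, scaled to two housekeeping genes and non-targeting median, log2; matched to mean KSR1 knockdown profile by Pearson correlation and euclidean distance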
Reading the numbers: mean correlation with KSR1 profile: higher = expression change more like KSR1 knockdown
This is one part, drawn at random, of about 14,000 reagents. 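Higher correlation or smaller distance means closer resemblance to KSR1 loss; control wells, including KSR1 knockdowns, recur on many plates.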 Not all columns of the deposit are shown. Not given: the time to read-out.

{"gene knocked down": "SSU72", "mean correlation with KSR1 profile": 0.0668}
{"gene knocked down": "ARHGAP17", "mean correlation with KSR1 profile": -0.465}
{"gene knocked down": "ACAD8", "mean correlation with KSR1 profile": -0.439}
{"gene knocked down": "REL", "mean correlation with KSR1 profile": -0.175}
{"gene knocked down": "ADAMTS15", "mean correlation with KSR1 profile": -0.425}
{"gene knocked down": "OAS1", "mean correlation with KSR1 profile": 0.134}
{"gene knocked down": "MRC1", "mean correlation with KSR1 profile": 0.275}
{"gene knocked down": "DHX35", "mean correlation with KSR1 profile": 0.219}
{"gene knocked down": "C1orf115", "mean correlation with KSR1 profile": 0.706}
{"gene knocked down": "HMGCLL1", "mean correlation with KSR1 profile": 0.0785}
{"gene knocked down": "HAND2", "mean correlation with KSR1 profile": 0.0501}
{"gene knocked down": "ZNF34", "mean correlation with KSR1 profile": 0.16}
{"gene knocked down": "YAP1", "mean correlation with KSR1 profile": 0.277}
{"gene knocked down": "STK38", "mean correlation with KSR1 profile": -0.97}
{"gene knocked down": "NDUFS8", "mean correlation with KSR1 profile": -0.0967}
{"gene knocked down": "ARMCX2", "mean correlation with KSR1 profile": 0.444}
{"gene knocked down": "PALD1", "mean correlation with KSR1 profile": -0.0655}
{"gene knocked down": "SERINC3", "mean correlation with KSR1 profile": -0.566}

Taken from above.
Entry for ARMCX2 under “mean correlation with KSR1 profile”: 0.444
Under “mean correlation with KSR1 profile”, SSU72 is entered as 0.0668
STK38, mean correlation with KSR1 profile: -0.97
HAND2, mean correlation with KSR1 profile → 0.0501
Under “mean correlation with KSR1 profile”, PALD1 reads -0.0655

The results go on.
{"gene knocked down": "RAP1GDS1", "mean correlation with KSR1 profile": 0.297}
{"gene knocked down": "GPR143", "mean correlation with KSR1 profile": 0.957}
{"gene knocked down": "ACOX3", "mean correlation with KSR1 profile": 0.107}
{"gene knocked down": "TXNDC2", "mean correlation with KSR1 profile": 0.987}
{"gene knocked down": "RAB22A", "mean correlation with KSR1 profile": -0.229}
{"gene knocked down": "CWC15", "mean correlation with KSR1 profile": -0.818}
{"gene knocked down": "NOL9", "mean correlation with KSR1 profile": 0.655}
{"gene knocked down": "DCAF17", "mean correlation with KSR1 profile": 0.103}
{"gene knocked down": "CD2BP2", "mean correlation with KSR1 profile": -0.176}
{"gene knocked down": "TMEM43", "mean correlation with KSR1 profile": 0.733}
{"gene knocked down": "KIF21B", "mean correlation with KSR1 profile": -0.641}
{"gene knocked down": "GAGE5", "mean correlation with KSR1 profile": 0.00581}
{"gene knocked down": "SCN1A", "mean correlation with KSR1 profile": 0.63}
{"gene knocked down": "PSRC1", "mean correlation with KSR1 profile": -0.489}
{"gene knocked down": "IGF2", "mean correlation with KSR1 profile": -0.0287}
{"gene knocked down": "NSG2", "mean correlation with KSR1 profile": -0.291}
{"gene knocked down": "RAB1A", "mean correlation with KSR1 profile": -0.407}
{"gene knocked down": "TP73", "mean correlation with KSR1 profile": 0.334}
